The target of the data set is T1, Cre recombinase (UniProt P06956).
T1 sequence: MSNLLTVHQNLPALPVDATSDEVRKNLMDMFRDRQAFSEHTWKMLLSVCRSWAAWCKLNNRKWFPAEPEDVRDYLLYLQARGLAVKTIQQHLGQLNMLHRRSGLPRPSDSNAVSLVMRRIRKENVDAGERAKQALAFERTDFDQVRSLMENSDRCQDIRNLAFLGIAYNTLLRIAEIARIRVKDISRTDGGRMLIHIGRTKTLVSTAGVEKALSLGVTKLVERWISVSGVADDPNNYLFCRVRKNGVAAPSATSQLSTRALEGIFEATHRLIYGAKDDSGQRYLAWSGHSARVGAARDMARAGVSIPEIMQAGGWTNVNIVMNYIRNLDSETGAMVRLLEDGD
As to the kind of experiment: activity in cells. To be noted: lox71 x lox66 same-direction excision in E. coli, 2% arabinose induction 1 h at 37 C; little residual precursor plasmid; protein in cells; only the site is given.

Tags and fusion partners may be left off the protein sequences shown.

Turning to “TACCGTTCGTATAATGTATGCTATACGAAGTTAT (double strand) [lox71]”, the “activity on this sequence” value was “active”.

Source of the values: patent publication US20240200083.
